According to article doi:10.1101/2020.01.12.903369:
These are yes or no findings as the source states them, for the method shown. Binding seen in cells or lysates may run through a third protein. Some results given as binding are weak or reduced against the parent protein; the word gives no strength.

Amino acid sequences for entries named in this document (tags omitted).
UniProt Q07820: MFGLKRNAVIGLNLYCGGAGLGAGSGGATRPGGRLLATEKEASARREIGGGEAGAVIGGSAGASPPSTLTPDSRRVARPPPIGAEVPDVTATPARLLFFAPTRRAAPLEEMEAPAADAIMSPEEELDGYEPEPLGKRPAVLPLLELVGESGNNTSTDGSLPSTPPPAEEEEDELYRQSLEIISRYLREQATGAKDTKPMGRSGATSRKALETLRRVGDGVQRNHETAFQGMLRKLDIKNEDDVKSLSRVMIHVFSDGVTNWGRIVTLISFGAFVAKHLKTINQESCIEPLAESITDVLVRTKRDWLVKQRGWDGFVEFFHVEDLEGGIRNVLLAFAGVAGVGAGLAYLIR

Biological target: T1, MARCH5 (human (endogenous in LNCaP)) (UniProt Q9NX47)
T1 sequence: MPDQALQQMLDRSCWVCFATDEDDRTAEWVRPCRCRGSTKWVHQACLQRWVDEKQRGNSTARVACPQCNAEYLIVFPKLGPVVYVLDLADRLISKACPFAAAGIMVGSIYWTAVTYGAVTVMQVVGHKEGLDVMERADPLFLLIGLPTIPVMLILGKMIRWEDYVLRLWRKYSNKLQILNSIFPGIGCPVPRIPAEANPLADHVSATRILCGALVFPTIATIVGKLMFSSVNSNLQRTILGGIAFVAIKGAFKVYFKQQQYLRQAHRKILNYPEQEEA
Assay: co-IP

binding: binds
Substance: MCL1 (from UniProt Q07820 1-350)
